According to patent publication US20180312587A1:
Results are given in words; binding and its absence hold for the method and conditions named. Some binding calls cover weakened binding; strength is not graded here.

Protein sequences, listed by entry. Tags and fused reporters are not part of them. Residues count along the entry.
UniProt P78324, residues 31-504: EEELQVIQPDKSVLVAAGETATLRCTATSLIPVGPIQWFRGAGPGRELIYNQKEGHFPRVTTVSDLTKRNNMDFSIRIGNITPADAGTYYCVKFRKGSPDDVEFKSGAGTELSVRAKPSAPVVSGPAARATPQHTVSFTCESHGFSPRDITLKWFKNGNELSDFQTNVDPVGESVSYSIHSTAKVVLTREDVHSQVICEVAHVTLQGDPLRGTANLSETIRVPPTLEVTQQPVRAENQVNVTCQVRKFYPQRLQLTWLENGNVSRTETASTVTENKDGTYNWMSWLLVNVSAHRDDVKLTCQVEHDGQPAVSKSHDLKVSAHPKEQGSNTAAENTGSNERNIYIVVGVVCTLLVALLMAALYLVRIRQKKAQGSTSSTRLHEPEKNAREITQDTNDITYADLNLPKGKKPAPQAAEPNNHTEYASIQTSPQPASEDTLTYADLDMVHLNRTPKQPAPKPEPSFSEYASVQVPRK

Tests used:
[1] = target: hSIRPα expressed on primary human cells (human) (UniProt P78324); experiment: flow cytometry on CD14+ enriched monocytes, human donor 1, AF647 goat-anti-mouse IgG
[2] = target: hSIRPα expressed on primary human cells (human) (UniProt P78324); experiment: flow cytometry
[3] = target: hSIRPα expressed on primary human cells (human) (UniProt P78324); experiment: flow cytometry on CD14+ enriched monocytes, human donor 2; blocked ligand: DyLight 488-labeled recombinant hCD47/Fc
[4] = target: hSIRPα expressed on primary human cells (human) (UniProt P78324); experiment: flow cytometry on CD14+ enriched monocytes, human donor 1; blocked ligand: DyLight 488-labeled recombinant hCD47/Fc
[5] = target: hSIRPα expressed on primary human cells (human) (UniProt P78324); experiment: flow cytometry, primary human granulocytes
[6] = target: hSIRPα expressed on primary human cells (human) (UniProt P78324); experiment: flow cytometry on CD14+ enriched monocytes, human donor 2, AF647 goat-anti-mouse IgG
[7] = target: hSIRPα expressed on primary human cells (human) (UniProt P78324); experiment: flow cytometry, primary CD14+ enriched monocytes
[8] = target: hSIRPα expressed on primary human cells (human) (UniProt P78324); experiment: flow cytometry on primary human granulocytes, FITC goat-anti-mouse Ig

Measured: binding

B1: hSIRPα.40A (antibody, mouse IgG1, kappa, V domains shown)
VH: EVQFQQSGTVLARPGTSVKMSCKASGSTFTSYWMHWVKQGPGQGLQWIGAIYPVNNDTTYNQKFKGKAELTVVTSTSTAYMEVSSLTNEDSAVYYCTRSFYYSLDAAWFVYWGQGTLVTVSA
VL: DIQMTQSPSSLSASLGERVSLTCRASQDIGSRLNWLQQEPDGTIKRLIYATSSLDSGVPKRFSGSRSGSDYSLTISGLESEDFVDYYCLQYASSPFTFGGGTKLEINR
not listed: [8]
binds: all other assays above

B2: hSIRPα.50A (antibody, V domains shown)
VH: QVQLQQSGPELVKPGASVRISCKASGFTFTNYYIHWVKQRPGQGLEWIGWIYPGNVNTKYNEKFKAKATLTADKSSTTAYMQLSSLASEDSAVYFCARPTIIATDFDVWGAGTTVTVSS
VL: DIVMTQSHKFMSTSVGDRVNITCKASQGVGTAVGWYQQKPGQSPRLLIYWASTRHTGVPDRFTGSGSGTDFSLAISNVQSEDLADYFCQQYSTYPFTFGGGTNLEIK
binds: [8] | [2] | [5] | [7]
